From PMC8816719
These are yes or no findings as the source states them, for the method shown. In cells and extracts the contact can be indirect. Some entries that bind do so weakly or less than the wild type.

Chains of the proteins cited; added tags and fusions are not shown. Lines headed by an entry give the natural chain unless they say otherwise; changes in a name come on top. Residues count along the entry.
UniProt P30101, residues 25-505: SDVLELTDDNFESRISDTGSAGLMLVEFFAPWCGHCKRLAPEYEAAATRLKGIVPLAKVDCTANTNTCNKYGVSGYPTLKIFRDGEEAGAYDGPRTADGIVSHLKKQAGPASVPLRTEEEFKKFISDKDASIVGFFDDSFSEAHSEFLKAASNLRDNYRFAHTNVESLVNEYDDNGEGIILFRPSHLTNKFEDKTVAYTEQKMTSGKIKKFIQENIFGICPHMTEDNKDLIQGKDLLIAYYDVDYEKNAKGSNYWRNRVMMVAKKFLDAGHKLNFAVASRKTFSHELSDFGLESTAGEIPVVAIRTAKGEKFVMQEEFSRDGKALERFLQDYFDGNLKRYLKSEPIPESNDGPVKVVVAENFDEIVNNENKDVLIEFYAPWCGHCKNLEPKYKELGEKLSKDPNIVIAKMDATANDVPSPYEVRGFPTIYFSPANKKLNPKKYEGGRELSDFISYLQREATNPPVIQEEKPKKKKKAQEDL
UniProt O95994, residues 21-175: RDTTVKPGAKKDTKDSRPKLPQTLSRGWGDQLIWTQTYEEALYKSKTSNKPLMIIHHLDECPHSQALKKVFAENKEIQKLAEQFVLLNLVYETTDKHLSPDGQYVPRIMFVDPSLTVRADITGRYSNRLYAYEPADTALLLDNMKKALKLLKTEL

Assays:
[1] = target: T1, Protein disulfide isomerase family A, member 6 (PDIA6) (human (endogenous in T47D, H1299, A549)) (UniProt Q15084); experiment: co-IP; T47D lysates (200 ug), cells exposed or unexposed to DSP; antibody to AGR2, PDIA3 or PDIA6 at 1 ug/ml overnight at 4 °C, Protein G Sepharose; non-specific antibody as control; immunoblot
T1 sequence: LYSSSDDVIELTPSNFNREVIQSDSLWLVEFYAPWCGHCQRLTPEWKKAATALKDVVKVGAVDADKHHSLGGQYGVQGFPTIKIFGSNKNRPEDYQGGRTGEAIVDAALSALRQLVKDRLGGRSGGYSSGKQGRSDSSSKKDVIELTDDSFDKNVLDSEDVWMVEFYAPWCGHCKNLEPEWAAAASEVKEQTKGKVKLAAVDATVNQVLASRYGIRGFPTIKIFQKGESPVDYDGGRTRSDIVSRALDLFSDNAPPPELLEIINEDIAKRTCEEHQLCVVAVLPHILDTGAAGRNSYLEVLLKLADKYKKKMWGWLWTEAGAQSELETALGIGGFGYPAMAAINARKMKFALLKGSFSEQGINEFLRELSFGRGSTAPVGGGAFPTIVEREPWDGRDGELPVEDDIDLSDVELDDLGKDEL

[2] = target: Protein disulfide isomerase family A, member 3 (PDIA3) (human (endogenous in T47D, H1299, A549)) (UniProt P30101); experiment: as above
[3] = target: T2, E7 peptide (AGR2-specific biotinylated peptide aptamer); experiment: pull-down; biotinylated E7 peptide on streptavidin-agarose incubated overnight at 4 °C with cell lysate (T47D, or mixed H1299 + H1299-AGR2); washed 6x with PBS-T; AGR2 in the eluates detected by immunoblotting and LC-MS/MS; only the target purified
T2 sequence (peptide, biotin (position not stated)): SGSGPTTIYY

[4] = target: Anterior gradient 2 (AGR2), endogenous (human (endogenous in T47D, A549)) (UniProt O95994); experiment: co-IP; A549 and T47D cells untreated or exposed for 16 h to ER stress inducers (tunicamycin, thapsigargin, DTT); lysates, antibody, Protein G Sepharose; immunoblot
[5] = target: Anterior gradient 2 (AGR2), stably expressed in H1299-LZ4-AGR2 cells (human) (UniProt O95994); experiment: proximity ligation; fixed and permeabilised cells (T47D, A549, H1299-AGR2); primary antibodies to AGR2 and PDIA3 or PDIA6; Duolink In Situ Red Kit Mouse/Rabbit
[6] = target: Anterior gradient 2 (AGR2), endogenous (human (endogenous in T47D, A549)) (UniProt O95994); experiment: as above
[7] = target: Anterior gradient 2 (AGR2), endogenous (human (endogenous in T47D, A549)) (UniProt O95994); experiment: co-IP; T47D lysates (200 ug), cells exposed or unexposed to DSP; antibody to AGR2, PDIA3 or PDIA6 at 1 ug/ml overnight at 4 °C, Protein G Sepharose; non-specific antibody as control; immunoblot

Molecule: Anterior gradient 2 (AGR2), endogenous (from UniProt O95994 21-175)
- binding [1]: binds
- binding [2]: binds
- binding [3]: binds

Molecule: Anterior gradient 2 (AGR2), stably expressed in H1299-LZ4-AGR2 cells (from UniProt O95994 21-175)
- binding [3]: binds

Molecule: Protein disulfide isomerase family A, member 3 (PDIA3) (from UniProt P30101 25-505)
- binding [4]: binds
- binding [5]: binds
- binding [6]: binds
- binding [7]: binds

B1: Protein disulfide isomerase family A, member 6 (PDIA6) (protein, UniProt Q15084 20-440)
chain: LYSSSDDVIELTPSNFNREVIQSDSLWLVEFYAPWCGHCQRLTPEWKKAATALKDVVKVGAVDADKHHSLGGQYGVQGFPTIKIFGSNKNRPEDYQGGRTGEAIVDAALSALRQLVKDRLGGRSGGYSSGKQGRSDSSSKKDVIELTDDSFDKNVLDSEDVWMVEFYAPWCGHCKNLEPEWAAAASEVKEQTKGKVKLAAVDATVNQVLASRYGIRGFPTIKIFQKGESPVDYDGGRTRSDIVSRALDLFSDNAPPPELLEIINEDIAKRTCEEHQLCVVAVLPHILDTGAAGRNSYLEVLLKLADKYKKKMWGWLWTEAGAQSELETALGIGGFGYPAMAAINARKMKFALLKGSFSEQGINEFLRELSFGRGSTAPVGGGAFPTIVEREPWDGRDGELPVEDDIDLSDVELDDLGKDEL
- binding [5]: binds
- binding [6]: binds
- binding [7]: binds
